Source: PubChem BioAssay AID493014 (National Center for Advancing Translational Sciences (NCATS), 2011)
Values joined by “and” are separate entries in the source; they are usually repeats but may differ in a detail not shown here. Equal entries are not always repeated. This is one part of the list. Further columns of the screen follow, without active or inactive calls. The list favours compounds with an active or inconclusive main result. The note in brackets gives the kind of curve behind each potency; many fits are weak.

Experiment: qHTS Assay to Find Inhibitors of Chronic Active B-Cell Receptor Signaling
Details: ABC-DLBCL IkBa-CBG/CBR reporter, luminescence ratio (green luciferase fused to IkBa over red control in TMD8 lymphoma cells), 4 h
How it was run: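 Doxycycline induced both beetle luciferases in TMD8 lymphoma cells; IKK-driven degradation limits the IkappaBalpha-fused green signal, while red luminescence normalises for cell number and nonspecific effects. Compounds tested up to 46 uM, 4 hrs.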

[1] = measured here: CBR red luminescence, cell number
[2] = measured here: IkBa-CBG green luminescence

SMILES	AC50 [1]	AC50 [2]
Cc1cc(C)n(Cc2nc3ccccc3n2C)n1	2.91 µM [rising, partial curve]	
CN(C(=O)COC(=O)c1cc(=O)[nH]c2ccccc12)c1ccccc1	29.1 µM [rising, single point]	
COc1cccc(C(=O)Nc2cc(C)c3c(=O)oc4ccccc4c3n2)c1	5.62 µM [falling, full curve]	
CCCOC(=O)CCCCC1SCC(NC(=O)OC)C1NC(=O)OC (stereo not drawn)	35.5 µM [rising, partial curve, poor fit]	
CSCCNC(=O)c1ccc(C(C)(C)C)cc1	2.24 µM [rising, full curve, poor fit]	
CCOc1c(Cl)cc(/C=C/C(=O)N(CC)CC(=O)NCc2cccs2)cc1OC	32.6 µM [rising, partial curve, poor fit]	
O=C(Nc1ccc(Cl)cn1)c1ccc2ccccc2n1	1.41 µM [rising, partial curve, poor fit]	
O=C(Nc1cccc2cccnc12)c1cccc(N2C(=O)CCC2=O)c1	12.6 µM [falling, partial curve, poor fit]	
COc1ccc(Br)cc1/C=N/NC(=O)c1nc(-c2ccccc2)n2c1CCCCC2	1.64 µM [rising, single point]	
O=C1C(=O)N(CCS(=O)(=O)c2ccccc2)c2ccc(Cl)cc21	17.8 µM [rising, single point]	35.5 µM [falling, single point]
NC(=O)Cc1ccc(C(=O)c2ccc(Cl)cc2)s1	20 µM [falling, partial curve, poor fit]	
CCOC(=O)c1c(NC(=O)COC(=O)CCOc2ccc(OCC)cc2)sc(C(=O)N(C)C)c1C	25.9 µM [rising, partial curve, poor fit]	
Cn1nnnc1SCCOc1ccc(C#N)cc1	12.6 µM [rising, partial curve, poor fit]	
CC1Sc2ccc(S(=O)(=O)CCC(=O)N(C)Cc3ccccc3)cc2NC1=O (stereo not drawn)	15.8 µM [falling, single point]	
Cc1ccc(/C=C/C(=O)Nc2nnc(SCc3ccc(C#N)cc3)s2)o1	29.1 µM [rising, single point]	
O=C(Nc1ccc(Br)cn1)c1ccc([N+](=O)[O-])o1	10 µM [falling, partial curve]	35.5 µM [rising, partial curve, poor fit]
CCOC(=O)c1cnn(-c2ccc([N+](=O)[O-])cc2)c1N	2 µM [rising, full curve]	
COc1ccc(C(=O)Nc2nc3ccccc3s2)cc1	2.82 µM [falling, full curve]	
COc1ccc(-c2cc(C(F)F)nc(-n3nc(C)cc3C)n2)cc1	11.2 µM [falling, single point]	
COc1ccc(-c2nc(-c3cccs3)c(-c3cccs3)[nH]2)cc1OC	18.4 µM [falling, partial curve, poor fit]	

SMILES	AC50 [1]	AC50 [2]
COc1ccc(CCNc2ncnc3c2cnn3-c2cccc(Cl)c2)cc1	25.1 µM [falling, partial curve, poor fit]	
CCN(CC)c1ccc(C(=O)Nn2c(C)nc3ccccc3c2=O)cc1	35.5 µM [rising, single point]	
COc1ccccc1N1CCN(C(=O)c2cn(-c3ccccc3)nc2-c2cccnc2)CC1	29.1 µM [rising, single point]	
Cc1cccc2cc(C3CC(c4ccco4)=NN3S(C)(=O)=O)c(Cl)nc12 (stereo not drawn)	14.1 µM [falling, single point]	
CC1COc2ccccc2N1C(=O)c1cccnc1Cl (stereo not drawn)	35.5 µM [falling, single point]	
O=C(Cc1cccs1)N/N=C/C=C/c1ccco1		20.6 µM [falling, partial curve, poor fit]
N#CCSc1nc(N)c(C#N)c(C2CCCCC2)c1C#N	12.6 µM [rising, partial curve, poor fit]	10 µM [falling, partial curve]
CC1CCCC(NC(=O)c2cccc(N3CCCC3=O)c2)C1C (stereo not drawn)	20 µM [falling, partial curve, poor fit]	
COCCNC(=O)C(=O)Nc1cccc(Br)c1	29.1 µM [falling, single point]	
CC[C@]12c3[nH]c4cc(CCC(=O)N(C)C)ccc4c3CCN1C(=O)[C@@H](CC(=O)NCC13CC4CC(CC(C4)C1)C3)C[C@@H]2C(=O)N1CCN(C(=O)c2ccco2)CC1	1.64 µM [rising, partial curve]	18.4 µM [falling, partial curve]
O=C(Nc1cc(N2CCCCC2)ncn1)c1ccccc1	11.2 µM [falling, single point]	
Cc1ccccc1-n1c(SCC(=O)N(C)C2CCS(=O)(=O)C2)nc2ccccc2c1=O (stereo not drawn)	7.94 µM [rising, partial curve, poor fit]	
CC(C)Cn1c(SC(C)C(=O)NC2CC2)nnc1-c1ccccc1F (stereo not drawn)	29.1 µM [rising, partial curve, poor fit]	
COC(=O)c1cc(-c2ccc(Cl)cc2)n[nH]1	2 µM [rising, partial curve, poor fit]	
CCCCCCOC(=O)C(C#N)c1nc2ccccc2nc1N1CCN(C)CC1 (stereo not drawn)	29.1 µM [falling, single point] and 1.58 µM [falling, full curve, poor fit]	
Cc1cccc(NC(=O)CSc2nnc(CNC(=O)c3ccco3)n2C)c1	20 µM [rising, partial curve, poor fit]	
COCc1ccc(CN2CCCCC2C(=O)Nc2ccc(Oc3ccccc3)nc2)o1 (stereo not drawn)	11.2 µM [rising, single point]	
N/C(=N\OC(=O)c1ccco1)c1cccc(Br)c1	0.517 µM [rising, full curve]	
O=C(CSc1nnc(-c2cccnc2)s1)Nc1cccc(C(=O)O)c1	10.3 µM [falling, partial curve, poor fit]	

In the list so far, eight have an aryl methoxy group.
SMILES	AC50 [1]	AC50 [2]
COc1cccc(C(=O)Nc2cc(C)c3c(=O)oc4ccccc4c3n2)c1	5.62 µM [falling, full curve]	
CCOc1c(Cl)cc(/C=C/C(=O)N(CC)CC(=O)NCc2cccs2)cc1OC	32.6 µM [rising, partial curve, poor fit]	
COc1ccc(Br)cc1/C=N/NC(=O)c1nc(-c2ccccc2)n2c1CCCCC2	1.64 µM [rising, single point]	
COc1ccc(C(=O)Nc2nc3ccccc3s2)cc1	2.82 µM [falling, full curve]	
COc1ccc(-c2cc(C(F)F)nc(-n3nc(C)cc3C)n2)cc1	11.2 µM [falling, single point]	
COc1ccc(-c2nc(-c3cccs3)c(-c3cccs3)[nH]2)cc1OC	18.4 µM [falling, partial curve, poor fit]	
COc1ccc(CCNc2ncnc3c2cnn3-c2cccc(Cl)c2)cc1	25.1 µM [falling, partial curve, poor fit]	
COc1ccccc1N1CCN(C(=O)c2cn(-c3ccccc3)nc2-c2cccnc2)CC1	29.1 µM [rising, single point]	
